Test results: publication doi:10.1101/2024.06.18.599493
Results are given in words; binding and its absence hold for the method and conditions named. In cells and extracts the contact can be indirect. Some results given as binding are weak or reduced against the parent protein; the word gives no strength.

The chains behind the UniProt entries cited, without tags or fusion partners.
UniProt P09874: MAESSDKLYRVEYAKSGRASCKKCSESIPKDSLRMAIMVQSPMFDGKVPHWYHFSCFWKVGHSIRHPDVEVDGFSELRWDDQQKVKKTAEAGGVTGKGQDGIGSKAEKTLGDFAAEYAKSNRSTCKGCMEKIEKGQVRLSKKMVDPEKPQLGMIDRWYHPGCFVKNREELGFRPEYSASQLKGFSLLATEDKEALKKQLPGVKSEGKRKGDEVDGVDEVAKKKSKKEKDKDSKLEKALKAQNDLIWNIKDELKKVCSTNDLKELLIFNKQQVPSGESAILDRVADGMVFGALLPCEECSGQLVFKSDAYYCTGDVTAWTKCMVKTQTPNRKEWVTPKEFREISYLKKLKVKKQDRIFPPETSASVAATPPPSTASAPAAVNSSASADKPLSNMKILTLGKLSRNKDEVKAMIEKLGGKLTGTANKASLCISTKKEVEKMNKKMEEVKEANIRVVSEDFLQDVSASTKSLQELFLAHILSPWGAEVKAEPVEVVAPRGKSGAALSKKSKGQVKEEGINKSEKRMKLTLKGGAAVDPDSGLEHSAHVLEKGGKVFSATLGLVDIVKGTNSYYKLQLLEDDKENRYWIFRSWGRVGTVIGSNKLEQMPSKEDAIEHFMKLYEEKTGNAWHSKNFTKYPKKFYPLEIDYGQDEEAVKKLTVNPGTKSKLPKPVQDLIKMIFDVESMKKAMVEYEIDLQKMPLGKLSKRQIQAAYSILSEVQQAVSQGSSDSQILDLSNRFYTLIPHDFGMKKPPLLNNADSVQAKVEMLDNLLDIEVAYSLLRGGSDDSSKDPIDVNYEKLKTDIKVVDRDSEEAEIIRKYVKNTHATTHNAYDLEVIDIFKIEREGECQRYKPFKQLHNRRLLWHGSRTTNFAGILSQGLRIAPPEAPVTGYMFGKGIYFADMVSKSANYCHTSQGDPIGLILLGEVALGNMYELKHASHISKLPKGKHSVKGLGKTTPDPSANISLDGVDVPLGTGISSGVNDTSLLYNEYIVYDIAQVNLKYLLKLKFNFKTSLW
UniProt P67809: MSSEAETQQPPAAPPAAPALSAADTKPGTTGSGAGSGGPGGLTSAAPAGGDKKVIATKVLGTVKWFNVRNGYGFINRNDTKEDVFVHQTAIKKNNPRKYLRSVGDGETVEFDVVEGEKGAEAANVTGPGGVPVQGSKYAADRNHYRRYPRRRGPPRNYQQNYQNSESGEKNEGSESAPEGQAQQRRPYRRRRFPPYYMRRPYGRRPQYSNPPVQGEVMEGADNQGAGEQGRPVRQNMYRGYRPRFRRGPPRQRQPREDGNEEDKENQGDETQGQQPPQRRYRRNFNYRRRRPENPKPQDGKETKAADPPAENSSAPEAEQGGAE

Assays:
YFP-tagged PARP1 = YFP-tagged PARP1 (UniProt P09874); assay: co-IP
[1] = biological target: PARP1 (human (endogenous in HEK293T or HeLa)) (UniProt P09874); assay: proximity ligation

Y-Box Binding Protein 1 (YBX1) (from UniProt P67809 1-324)
binding (YFP-tagged PARP1): binds
binding [1]: binds
